# Laboratory results reported in publication PMC5859130.
# No constants are given. Whether binding was seen depends on the method and setting.
# Target: T1, Ixonnexin (Ixodes scapularis) (UniProt Q4PMS3)
# T1 sequence: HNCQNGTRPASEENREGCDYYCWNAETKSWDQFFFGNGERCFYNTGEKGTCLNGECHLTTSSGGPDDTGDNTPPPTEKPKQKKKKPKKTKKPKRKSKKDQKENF
# Assay: SPR; Ixonnexin amine-coupled to a carboxymethylated dextran (CM5) chip, 726.2 RU; analytes injected 120 s at 30 µL/min, 25 °C, dissociation 600 s; global fit with the two-state (conformational change) model, Langmuir 1:1 for plasmin; both purified
substance,measurement,value
low molecular weight urokinase (enzyme),binding,no binding (tested: 15–250 nM)
